# Laboratory results taken from patent US20260083698A1, “Synergistic Stimulation of Mucociliary Clearance to Treat Mucus Obstruction in Cystic Fibrosis and Other Muco-Obstructive Disorders” (The Board of Trustees of the Leland Stanford Junior …, priority 2022, published 2026).
# Columns and labels:
# piglet tracheal rings = assay: Airway narrowing: lumen area of thin sliced tracheal rings, methacholine; parameters: species or system pig; settings: methacholine preceded by 10 mM formoterol
# ex vivo WT pig tracheas = assay: ASL height by synchrotron-based phase contrast imaging
# Experimental: ASL heights were determined in pig tracheal preparations using synchrotron-based phase contrast imaging (PCI). The synchrotron beamline produces enough parallel spatial coherence X-ray to increase the contrast between airway lumen and ASL layer by PCI. When X-rays pass through the intact tracheal preparation, the difference in refractive index between ASL and airway lumen results in a phase shift of X-rays that causes a distinctive interference pattern shown on the charge-coupled device (CCD) detector as variations in X-ray intensity.
compound,measurement,setting,value
COc1ccc(CC(C)NCC(O)c2ccc(O)c(NC=O)c2)cc1 (centres unmarked) [formoterol],transient decrease of lumen area induced by methacholine when preceded by formoterol,piglet tracheal rings,5-10%
same,effect on ASL height,ex vivo WT pig tracheas,increased ASL heights
